# Test results published in the supplement of paper PMC12873370.
# “And” between values parts separate entries of the source, which are not always exact repeats. Identical values can stand only once. The list shows a part of the results. Many values rest on one well or one pass, so single values are uncertain.
# Test system: PREPP (mouse prostate epithelium Trp53/Pten KO)
# Experiment: cell viability relative to untreated (fraction); higher = less growth inhibition
# Details: 5 µM; 3 days
row,Structure (SMILES),cell viability
1,COc1cccc(OC)c1C(=O)O,0.928
2,CC(=O)OCC[N+](C)(C)C,0.973 and 0.894
3,O=C(O)CNC(=O)Cc1ccccc1,0.977
4,NC(=O)[C@@H]1CC[C@@H]2CN1C(=O)N2OS(=O)(=O)O,0.905
5,CS(=O)(=O)CCNCc1ccc(-c2ccc3ncnc(Nc4ccc(OCc5cccc(F)c5)c(Cl)c4)c3c2)o1,0.729
6,C=CC(=O)Nc1cc2c(Nc3ccc(F)c(Cl)c3)ncnc2cc1OCCCN1CCOCC1,0.293
7,O=C[C@@H](O)[C@H](O)[C@@H](O)CO,0.92
8,O=C(O)C(O)c1ccccc1 (stereo not given),0.485
9,N[C@@H](CCC(=O)O)C(=O)[O-].[Na+],1.09
10,O=C(O)/C=C\C(=O)O,0.936
11,C/C=C/c1ccc(OC)cc1,1.01
12,C[n+]1cccc(C(=O)[O-])c1,0.867 and 1.29
13,OC[C@@H](O)[C@@H](O)CO,0.962
14,CC1=C2C(=O)O[C@@H](c3ccoc3)[C@]2(C)CCC1,0.961
15,O=C(O)C(O)O,1.1
16,C[C@H]1[C@H](NC(=O)/C(=N\OC(C)(C)C(=O)O)c2csc(N)n2)C(=O)N1S(=O)(=O)O,0.855
17,CC1OC(OC2C(OC3CCC4(C)C(CCC5(C)C4CC=C4C6CC(C)(C)CCC6(C(=O)OC6OC(COC7OC(CO)C(O)C(O)C7O)C(O)C(O)C6O)CCC45C)C3(C)CO)OCC(O)C2O)C(O)C(O)C1O (stereo not given),1.01
18,CC[C@H](C)[C@H](N)C1=N[C@H](C(=O)N[C@@H](CC(C)C)C(=O)N[C@H](CCC(=O)[O-])C(=O)N[C@H](C(=O)N[C@H]2CCCCNC(=O)[C@H](CC(N)=O)NC(=O)[C@@H](CC(=O)[O-])NC(=O)[C@H](Cc3cnc[nH]3)NC(=O)[C@@H](Cc3ccccc3)NC(=O)[C@H]([C@@H](C)CC)NC(=O)[C@@H](CCCN)NC2=O)[C@@H](C)CC)CS1.[Zn+2],0.819
19,COc1c(C)c2c(c(O)c1C/C=C(\C)CCC(=O)OCCN1CCOCC1)C(=O)OC2,0.619
20,COc1cc(O)cc(O)c1C(=O)/C=C/c1ccccc1,0.796

row,Structure (SMILES),cell viability
1,O=c1ccn([C@@H]2O[C@H](COP(=O)(O)OP(=O)(O)O)[C@@H](O)[C@H]2O)c(=O)[nH]1,0.974
2,Oc1cc(O)c2cc(O)c(-c3ccc(O)c(O)c3)[o+]c2c1,1.19
3,CC1(C)S[C@@H]2[C@H](NC(=O)[C@H](NC(=O)N3CCN(S(C)(=O)=O)C3=O)c3ccccc3)C(=O)N2[C@H]1C(=O)O,0.919
4,COc1cc2ncnc(Nc3ccc(F)c(Cl)c3)c2cc1OCCCN1CCOCC1,0.828
5,COc1cc2ccc(=O)oc2cc1O,0.812
6,COC(=O)C1=CO[C@@H](O[C@@H]2O[C@H](CO)[C@@H](O)[C@H](O)[C@H]2O)[C@@H]2[C@H](C)O[C@@H](O)C[C@H]12,1.06
7,Oc1c(Cl)cc(Cl)c2cccnc12,0.406
8,CCCCCCCC(=O)O,0.956
9,CC[C@@]1(O)C(=O)OCc2c1cc1n(c2=O)Cc2cc3cc(O)ccc3nc2-1,0.625 and 0.712
10,COc1ccc(Cc2cnc(N)nc2N)cc1OC,0.912
11,O=C(O)c1cn(-c2ccc(F)cc2)c2cc(N3CCNCC3)c(F)cc2c1=O,0.856
12,CO/N=C(\C(=O)N[C@@H]1C(=O)N2C(C(=O)OC(C)OC(C)=O)=C(COC(N)=O)CS[C@H]12)c1ccco1 (stereo not given in full),1.04
13,COc1cc([C@@H]2c3cc4c(cc3[C@@H](O[C@@H]3O[C@@H]5CO[C@@H](C)O[C@H]5[C@H](O)[C@H]3O)[C@H]3COC(=O)[C@H]23)OCO4)cc(OC)c1O,0.831
14,CC[C@H]1OC(=O)C[C@@H](O)[C@H](C)[C@@H](O[C@@H]2O[C@H](C)[C@@H](O[C@H]3C[C@@](C)(O)[C@@H](O)[C@H](C)O3)[C@H](N(C)C)[C@H]2O)[C@@H](CC=O)C[C@@H](C)C(=O)/C=C/C(C)=C/[C@@H]1CO[C@@H]1O[C@H](C)[C@@H](O)[C@@H](OC)[C@H]1OC,0.919
15,C[n+]1cccc(C(N)=O)c1,0.978
16,CCCCCCCCCCCCC(=O)O,0.878
17,COc1ccc(CC(=O)O)cc1OC,0.919
18,C[C@@H]1O[C@@H](OC[C@H]2O[C@@H](Oc3cc(O)c4c(c3)O[C@H](c3ccc(O)c(O)c3)CC4=O)[C@H](O)[C@@H](O)[C@@H]2O)[C@H](O)[C@H](O)[C@H]1O,0.994
19,C=C[C@@]1(C)CC(=O)[C@]2(O)[C@@]3(C)[C@@H](O)CCC(C)(C)[C@@H]3[C@H](O)[C@H](OC(C)=O)[C@@]2(C)O1,0.945
20,O=c1cccc[nH]1,0.996
